# Test results: the supplement of paper PMC10849652
# The chains behind the UniProt entries cited, without tags or fusion partners. Where a name states a change or a piece, a line headed by the entry shows the natural chain unless it says otherwise.
# UniProt Q9BRF8, whole entry, looked up: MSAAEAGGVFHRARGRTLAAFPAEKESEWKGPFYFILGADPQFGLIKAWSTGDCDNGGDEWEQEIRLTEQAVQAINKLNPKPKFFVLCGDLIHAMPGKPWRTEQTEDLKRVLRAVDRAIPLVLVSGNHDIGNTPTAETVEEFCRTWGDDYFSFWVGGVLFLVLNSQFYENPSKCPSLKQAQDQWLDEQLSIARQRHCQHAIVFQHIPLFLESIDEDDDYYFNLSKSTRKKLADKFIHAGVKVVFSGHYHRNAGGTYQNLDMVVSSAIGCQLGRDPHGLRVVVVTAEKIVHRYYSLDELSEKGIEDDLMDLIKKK
# UniProt Q14019: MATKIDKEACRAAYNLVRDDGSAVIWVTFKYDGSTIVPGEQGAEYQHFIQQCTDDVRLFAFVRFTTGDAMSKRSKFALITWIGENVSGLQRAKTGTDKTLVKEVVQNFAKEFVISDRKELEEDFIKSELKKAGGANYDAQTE
# UniProt P53621: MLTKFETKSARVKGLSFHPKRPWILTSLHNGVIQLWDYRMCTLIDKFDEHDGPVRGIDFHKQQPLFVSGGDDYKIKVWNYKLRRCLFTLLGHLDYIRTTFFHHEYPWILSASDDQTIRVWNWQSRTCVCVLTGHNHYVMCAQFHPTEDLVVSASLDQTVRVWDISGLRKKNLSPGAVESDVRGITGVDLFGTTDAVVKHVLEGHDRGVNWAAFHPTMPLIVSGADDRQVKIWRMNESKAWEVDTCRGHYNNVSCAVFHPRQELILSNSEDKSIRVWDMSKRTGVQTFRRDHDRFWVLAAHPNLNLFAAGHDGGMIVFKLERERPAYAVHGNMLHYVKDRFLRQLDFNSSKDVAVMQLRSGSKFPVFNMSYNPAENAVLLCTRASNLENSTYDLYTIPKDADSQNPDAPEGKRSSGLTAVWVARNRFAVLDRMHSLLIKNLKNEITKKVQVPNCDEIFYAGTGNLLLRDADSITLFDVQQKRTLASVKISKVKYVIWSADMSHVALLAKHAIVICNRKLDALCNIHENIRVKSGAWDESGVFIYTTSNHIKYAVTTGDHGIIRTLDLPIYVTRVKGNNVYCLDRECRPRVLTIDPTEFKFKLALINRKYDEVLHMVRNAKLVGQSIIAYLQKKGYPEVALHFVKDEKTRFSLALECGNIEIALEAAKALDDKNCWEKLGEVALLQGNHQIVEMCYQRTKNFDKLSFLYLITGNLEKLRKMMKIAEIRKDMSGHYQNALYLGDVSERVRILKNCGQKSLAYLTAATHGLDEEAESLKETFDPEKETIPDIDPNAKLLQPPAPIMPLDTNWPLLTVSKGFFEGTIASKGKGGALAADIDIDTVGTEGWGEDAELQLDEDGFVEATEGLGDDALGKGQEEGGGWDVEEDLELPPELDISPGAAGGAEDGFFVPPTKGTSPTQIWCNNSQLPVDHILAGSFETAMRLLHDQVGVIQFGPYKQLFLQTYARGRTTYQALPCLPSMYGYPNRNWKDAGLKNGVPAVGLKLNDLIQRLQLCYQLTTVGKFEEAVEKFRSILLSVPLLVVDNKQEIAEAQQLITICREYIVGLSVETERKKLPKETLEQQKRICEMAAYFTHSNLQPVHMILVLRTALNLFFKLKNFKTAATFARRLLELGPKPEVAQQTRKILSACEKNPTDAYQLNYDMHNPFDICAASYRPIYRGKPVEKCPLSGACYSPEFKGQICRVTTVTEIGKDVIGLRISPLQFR
# UniProt P36551: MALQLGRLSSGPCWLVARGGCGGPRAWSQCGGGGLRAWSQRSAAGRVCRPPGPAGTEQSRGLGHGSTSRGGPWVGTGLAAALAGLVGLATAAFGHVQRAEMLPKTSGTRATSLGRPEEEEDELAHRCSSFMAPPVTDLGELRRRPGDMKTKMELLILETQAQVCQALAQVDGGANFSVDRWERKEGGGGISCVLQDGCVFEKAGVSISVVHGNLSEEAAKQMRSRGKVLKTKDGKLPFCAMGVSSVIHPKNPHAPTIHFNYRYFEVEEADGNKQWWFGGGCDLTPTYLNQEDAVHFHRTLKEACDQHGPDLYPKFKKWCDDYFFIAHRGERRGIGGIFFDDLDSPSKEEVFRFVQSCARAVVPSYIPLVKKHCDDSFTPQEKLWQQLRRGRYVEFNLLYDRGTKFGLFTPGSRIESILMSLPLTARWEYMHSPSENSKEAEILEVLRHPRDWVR
# UniProt Q99627: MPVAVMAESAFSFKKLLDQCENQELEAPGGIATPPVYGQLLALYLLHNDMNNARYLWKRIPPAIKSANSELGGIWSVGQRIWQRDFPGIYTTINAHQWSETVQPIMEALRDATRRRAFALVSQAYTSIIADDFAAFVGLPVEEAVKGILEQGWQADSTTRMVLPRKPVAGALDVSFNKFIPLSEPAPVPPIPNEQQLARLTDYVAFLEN
# UniProt Q99807: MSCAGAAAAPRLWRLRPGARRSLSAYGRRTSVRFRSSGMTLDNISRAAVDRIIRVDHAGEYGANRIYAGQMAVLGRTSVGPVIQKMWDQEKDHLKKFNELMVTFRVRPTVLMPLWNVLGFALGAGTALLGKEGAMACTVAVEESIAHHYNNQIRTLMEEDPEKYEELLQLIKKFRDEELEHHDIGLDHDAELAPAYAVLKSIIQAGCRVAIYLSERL
# UniProt O75718: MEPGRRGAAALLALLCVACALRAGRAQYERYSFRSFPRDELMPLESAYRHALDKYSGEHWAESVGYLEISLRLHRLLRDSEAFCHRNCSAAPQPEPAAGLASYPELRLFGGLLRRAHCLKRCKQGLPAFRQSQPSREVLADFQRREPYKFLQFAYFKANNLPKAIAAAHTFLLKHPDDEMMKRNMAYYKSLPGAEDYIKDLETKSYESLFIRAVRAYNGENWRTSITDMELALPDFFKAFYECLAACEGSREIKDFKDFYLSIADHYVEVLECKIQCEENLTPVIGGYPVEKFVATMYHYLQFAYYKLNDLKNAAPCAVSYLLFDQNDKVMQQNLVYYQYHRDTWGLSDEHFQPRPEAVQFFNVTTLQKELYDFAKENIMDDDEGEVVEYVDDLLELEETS
# UniProt O75976: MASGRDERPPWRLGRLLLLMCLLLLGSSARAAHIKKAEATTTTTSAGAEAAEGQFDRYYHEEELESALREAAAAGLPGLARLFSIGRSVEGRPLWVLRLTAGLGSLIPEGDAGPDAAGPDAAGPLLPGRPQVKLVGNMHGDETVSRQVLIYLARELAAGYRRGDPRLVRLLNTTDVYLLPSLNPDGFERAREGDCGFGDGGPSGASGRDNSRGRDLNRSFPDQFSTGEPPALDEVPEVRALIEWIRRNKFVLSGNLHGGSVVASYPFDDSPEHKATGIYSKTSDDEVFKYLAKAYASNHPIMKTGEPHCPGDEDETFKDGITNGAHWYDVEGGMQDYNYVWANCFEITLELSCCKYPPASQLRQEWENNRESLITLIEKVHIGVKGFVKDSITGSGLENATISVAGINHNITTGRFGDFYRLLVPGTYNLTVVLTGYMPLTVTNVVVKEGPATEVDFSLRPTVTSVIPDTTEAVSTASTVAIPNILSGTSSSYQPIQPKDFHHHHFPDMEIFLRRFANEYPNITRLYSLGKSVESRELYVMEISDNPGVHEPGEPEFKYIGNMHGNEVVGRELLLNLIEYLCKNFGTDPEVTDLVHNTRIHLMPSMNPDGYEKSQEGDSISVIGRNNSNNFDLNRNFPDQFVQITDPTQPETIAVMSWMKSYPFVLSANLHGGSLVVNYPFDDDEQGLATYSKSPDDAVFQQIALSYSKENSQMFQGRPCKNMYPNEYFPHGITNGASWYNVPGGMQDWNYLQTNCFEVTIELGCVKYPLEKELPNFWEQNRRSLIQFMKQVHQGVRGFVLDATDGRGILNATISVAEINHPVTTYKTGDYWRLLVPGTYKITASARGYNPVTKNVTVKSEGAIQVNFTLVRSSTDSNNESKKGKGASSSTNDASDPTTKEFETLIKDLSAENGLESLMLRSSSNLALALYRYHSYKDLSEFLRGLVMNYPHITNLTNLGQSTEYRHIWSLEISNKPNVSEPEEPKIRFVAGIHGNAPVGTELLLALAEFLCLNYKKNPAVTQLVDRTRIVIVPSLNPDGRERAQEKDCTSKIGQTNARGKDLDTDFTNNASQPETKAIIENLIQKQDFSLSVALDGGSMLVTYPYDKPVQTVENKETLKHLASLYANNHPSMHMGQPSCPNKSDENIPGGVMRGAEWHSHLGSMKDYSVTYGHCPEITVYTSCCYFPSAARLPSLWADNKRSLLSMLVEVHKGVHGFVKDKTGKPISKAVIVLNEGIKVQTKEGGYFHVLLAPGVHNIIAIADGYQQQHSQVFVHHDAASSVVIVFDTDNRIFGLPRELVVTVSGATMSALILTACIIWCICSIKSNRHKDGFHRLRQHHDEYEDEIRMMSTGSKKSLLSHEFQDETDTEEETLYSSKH
# UniProt P23786: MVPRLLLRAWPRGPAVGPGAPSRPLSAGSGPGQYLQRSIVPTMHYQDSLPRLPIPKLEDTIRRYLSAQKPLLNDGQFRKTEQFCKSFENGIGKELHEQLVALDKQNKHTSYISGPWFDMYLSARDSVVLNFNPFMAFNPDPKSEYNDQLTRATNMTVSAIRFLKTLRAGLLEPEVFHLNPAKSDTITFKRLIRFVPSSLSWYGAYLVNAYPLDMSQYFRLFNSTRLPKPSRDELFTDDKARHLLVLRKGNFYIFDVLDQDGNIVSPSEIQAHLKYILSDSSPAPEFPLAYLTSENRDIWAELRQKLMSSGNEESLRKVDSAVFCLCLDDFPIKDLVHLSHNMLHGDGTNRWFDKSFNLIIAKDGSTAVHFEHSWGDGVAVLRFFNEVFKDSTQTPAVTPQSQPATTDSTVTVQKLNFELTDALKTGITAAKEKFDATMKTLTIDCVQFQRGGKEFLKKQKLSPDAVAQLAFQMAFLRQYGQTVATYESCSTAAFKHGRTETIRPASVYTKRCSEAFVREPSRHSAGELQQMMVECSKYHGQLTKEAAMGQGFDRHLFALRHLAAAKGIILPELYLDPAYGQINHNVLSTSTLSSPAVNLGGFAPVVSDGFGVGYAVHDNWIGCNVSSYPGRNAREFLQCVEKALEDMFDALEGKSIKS
# UniProt P41240: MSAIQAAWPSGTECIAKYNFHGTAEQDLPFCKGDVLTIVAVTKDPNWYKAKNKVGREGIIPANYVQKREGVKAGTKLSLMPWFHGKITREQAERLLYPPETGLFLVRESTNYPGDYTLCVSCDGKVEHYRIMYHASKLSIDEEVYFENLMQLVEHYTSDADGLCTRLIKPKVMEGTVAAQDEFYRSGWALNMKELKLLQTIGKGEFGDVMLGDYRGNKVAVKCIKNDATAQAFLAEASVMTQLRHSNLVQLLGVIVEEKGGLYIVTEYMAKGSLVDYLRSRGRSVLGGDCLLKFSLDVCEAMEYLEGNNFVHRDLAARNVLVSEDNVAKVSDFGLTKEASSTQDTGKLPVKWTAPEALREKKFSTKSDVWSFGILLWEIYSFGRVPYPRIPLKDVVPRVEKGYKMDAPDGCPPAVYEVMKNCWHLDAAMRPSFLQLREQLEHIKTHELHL
# UniProt Q9Y646: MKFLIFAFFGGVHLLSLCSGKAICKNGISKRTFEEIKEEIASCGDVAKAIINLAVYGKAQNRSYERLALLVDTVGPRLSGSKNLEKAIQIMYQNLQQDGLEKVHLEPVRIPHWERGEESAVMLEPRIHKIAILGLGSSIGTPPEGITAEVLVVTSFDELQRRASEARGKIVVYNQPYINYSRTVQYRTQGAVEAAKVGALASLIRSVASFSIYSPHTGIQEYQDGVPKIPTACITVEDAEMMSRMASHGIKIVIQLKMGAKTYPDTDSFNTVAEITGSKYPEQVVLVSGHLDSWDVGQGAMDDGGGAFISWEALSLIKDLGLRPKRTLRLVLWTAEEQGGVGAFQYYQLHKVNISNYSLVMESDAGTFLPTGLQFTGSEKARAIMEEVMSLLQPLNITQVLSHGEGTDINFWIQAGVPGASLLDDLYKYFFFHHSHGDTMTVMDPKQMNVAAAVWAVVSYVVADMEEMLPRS
# UniProt Q9Y2Z9: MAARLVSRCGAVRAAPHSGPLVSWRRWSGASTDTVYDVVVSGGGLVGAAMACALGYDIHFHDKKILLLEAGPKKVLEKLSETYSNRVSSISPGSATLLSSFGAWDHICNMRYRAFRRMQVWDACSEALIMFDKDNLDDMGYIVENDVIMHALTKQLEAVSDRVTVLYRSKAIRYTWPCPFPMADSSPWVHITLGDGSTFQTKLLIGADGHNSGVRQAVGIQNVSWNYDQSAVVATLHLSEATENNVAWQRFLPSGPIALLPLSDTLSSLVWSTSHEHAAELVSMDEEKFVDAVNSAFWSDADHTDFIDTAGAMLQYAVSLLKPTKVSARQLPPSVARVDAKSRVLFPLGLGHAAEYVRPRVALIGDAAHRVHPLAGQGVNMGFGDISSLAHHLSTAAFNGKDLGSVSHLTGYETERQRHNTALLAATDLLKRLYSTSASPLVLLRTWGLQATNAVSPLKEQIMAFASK
# Some of the results follow.
# How the values were obtained:
# Assay in all cases: log2 fold change, soluble protein after heating vs DMSO (PISA); higher = thermal stabilisation; K562 cells, 10 uM, 30 min; active = over 0.2 and 3.5 SD of the protein, either way, in both replicates (recomputed)
# [1] = compound: CC1=C(C=C(C=C1)NC(=O)C2=CC(=CC=C2)C(C)(C)C#N)NC3=CC4=C(C=C3)N=CN(C4=O)C
# Outline: (§1)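 K562 cells (2×10^6 cells/mL) were treated with 10 μM compound for 30 min, and aliquots were heated for 3 min over 48°C-58°C. Pooled aliquots were extracted in PBS with 0.5% NP-40 at 4°C, and the supernatant after 21,000xg for 90 min was measured by TMTpro 16plex LC-MS/MS with channel sums equalised. Reported thermal stability, relative to control samples and from duplicates, is a log2 fold change.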
# [2] = compound: CC1=C(C=C(C=C1)NC(=O)C2=CC(=CC=C2)N(C)C)NC(=O)C3=CC=C(C=C3)O
# Outline: as §1
# [3] = compound: CC1=CC=C(C=C1)SC2=C3C=C(SC3=CN=C2)C(=O)N
# Outline: as §1
# [4] = compound: CC1=NC(=CC=C1)C2=C(N=C(N2)C(C)(C)C)C3=CC4=NC=CN=C4C=C3
# Outline: as §1
# [5] = compound: CCCCN(Cc1ccc(C(=O)NO)cc1)C(=O)Nc1ccccc1 [Nexturastat A]
# Outline: as §1
# [6] = compound: CCCS(=O)(=O)Nc1ccc(F)c(C(=O)c2c[nH]c3ncc(-c4ccc(Cl)cc4)cc23)c1F [vemurafenib]
# Outline: as §1
# [7] = compound: CCCS(=O)(=O)Nc1ccc(F)c(C(=O)c2c[nH]c3ncc(Cl)cc23)c1F
# Outline: as §1
# [8] = compound: CCCc1cc(C)[nH]c(=O)c1CNC(=O)c1cc(-c2ccnc(N3CCN(C)CC3)c2)cc2c1cnn2C(C)C
# Outline: as §1
# [9] = compound: CCN(CC)Cc1ccc2cc(COC(=O)Nc3ccc(C(=O)NO)cc3)ccc2c1 [givinostat]
# Outline: as §1
# [10] = compound: CCN(CCCOc1ccc2c(Nc3cc(CC(=O)Nc4cccc(F)c4)[nH]n3)ncnc2c1)CCOP(=O)(O)O [barasertib]
# Outline: as §1
# [11] = compound: CC[C@@H]1C(=O)N(C)c2cnc(Nc3ccc(C(=O)NC4CCN(C)CC4)cc3OC)nc2N1C1CCCC1
# Outline: as §1
# [12] = compound: CC[C@@H]1C(=O)N(C)c2cnc(Nc3ccc(C(=O)N[C@H]4CC[C@H](N5CCN(CC6CC6)CC5)CC4)cc3OC)nc2N1C(C)C [volasertib]
# Outline: as §1
# [13] = compound: CC[C@H](C)N1C=C(C2=C(C=C(C=C21)C3=CN=C(C=C3)N4CCNCC4)C(=O)NCC5=C(C=C(NC5=O)C)C)C
# Outline: as §1
# [14] = compound: CC[C@H](C)[C@@H](C(=O)N[C@@H]([C@@H](C)O)C(=O)N[C@@H](CC(C)C)C(=O)[C@]1(CO1)C)NC(=O)[C@H]([C@@H](C)CC)N(C)C(=O)C [epoxomicin]
# Outline: as §1
# [15] = compound: CCn1c(C(=O)N(C2CC2)C2CC2)cc2c3c(ncn3C)c(Nc3cc(C)n(C)n3)nc21
# Outline: as §1
# [16] = compound: CCn1cc(-c2ccnc3[nH]c(-c4cccc(CN(C)C)c4)cc23)c(-c2ccc(NC(=O)N(C)C)cc2)n1
# Outline: as §1
# [17] = compound: CN(C)CC(=O)Nc1ccc2[nH]c(=O)c3ccccc3c2c1
# Outline: as §1
# [18] = compound: CN(CCOC1=CC=C(C=C1)C[C@H]2C(=O)NC(=O)S2)C3=CC=CC=N3 (racemic) [rosiglitazone]
# Outline: as §1
# [19] = compound: CN1C2=C(C3=C1C(=O)N(N=C3)CC4=CC(=CC=C4)N)SC(=C2)S(=O)C
# Outline: as §1
# [20] = compound: CN1CCC(CNc2ccc3ncc(-c4cccc(OC(F)(F)F)c4)n3n2)CC1
# Outline: as §1
Target,log2 fold change [1],log2 fold change [2],log2 fold change [3],log2 fold change [4],log2 fold change [5],log2 fold change [6],log2 fold change [7],log2 fold change [8],log2 fold change [9],log2 fold change [10],log2 fold change [11],log2 fold change [12],log2 fold change [13],log2 fold change [14],log2 fold change [15],log2 fold change [16],log2 fold change [17],log2 fold change [18],log2 fold change [19],log2 fold change [20]
CPPED1 (UniProt Q9BRF8),inactive: 0.014,inactive: 0.027,inactive: 0.014,inactive: 0.007,inactive: -0.004,inactive: 0.023,inactive: 0,inactive: -0.083,inactive: -0.025,inactive: -0.009,inactive: 0.009,inactive: 0.053,inactive: -0.006,inactive: -0.01,inactive: 0.003,inactive: 0.023,inactive: -0.006,inactive: 0.003,inactive: 0.007,inactive: -0.047
COTL1 (UniProt Q14019),inactive: 0.031,inactive: 0.005,inactive: 0.038,inactive: 0.05,inactive: -0.043,inactive: 0.033,inactive: 0.057,inactive: -0.05,inactive: -0.006,inactive: 0.024,inactive: 0.009,inactive: -0.019,inactive: 0.022,inactive: 0.011,inactive: 0.018,inactive: -0.02,inactive: 0,inactive: 0.029,inactive: -0.088,inactive: -0.06
COPA isoform 2 (UniProt P53621),inactive: -0.004,inactive: -0.03,inactive: 0.007,inactive: 0.004,inactive: -0.03,inactive: 0.014,inactive: 0.047,inactive: 0.013,inactive: -0.029,inactive: 0.01,inactive: -0.021,inactive: -0.141,inactive: 0.035,inactive: 0.047,inactive: -0.011,inactive: 0,inactive: -0.003,inactive: 0.005,inactive: -0.032,inactive: -0.03
CPOX (UniProt P36551),inactive: 0.042,inactive: 0.039,inactive: 0.042,inactive: -0.001,inactive: -0.12,inactive: -0.026,inactive: -0.01,inactive: -0.016,inactive: -0.117,inactive: -0.042,inactive: 0.09,inactive: 0.077,inactive: -0.025,inactive: -0.033,inactive: 0.076,inactive: -0.063,inactive: 0.038,inactive: 0.009,inactive: -0.086,inactive: -0.011
COPS8 (UniProt Q99627),inactive: 0.031,inactive: -0.04,inactive: 0,inactive: -0.09,inactive: 0.126,inactive: -0.003,inactive: -0.031,inactive: -0.056,inactive: 0.049,inactive: 0.009,inactive: -0.018,inactive: 0.043,inactive: 0.032,inactive: -0.047,–,inactive: 0.013,inactive: 0.033,–,inactive: 0.011,inactive: 0.113
COLGALT1 (UniProt Q8NBJ5),inactive: 0.007,inactive: 0.018,inactive: -0.044,inactive: -0.022,inactive: -0.043,inactive: -0.035,inactive: -0.046,inactive: 0.044,inactive: 0.013,inactive: -0.026,inactive: 0.059,inactive: 0.057,inactive: 0.009,inactive: -0.022,inactive: 0.024,inactive: 0.071,inactive: -0.028,inactive: -0.046,inactive: 0.086,inactive: 0.193
COQ7 (UniProt Q99807),inactive: 0.028,inactive: 0.086,inactive: 0.02,inactive: 0.018,inactive: -0.068,inactive: -0.002,inactive: -0.061,inactive: -0.034,inactive: -0.091,inactive: 0.023,inactive: -0.035,inactive: -0.009,inactive: -0.01,inactive: 0.013,–,inactive: -0.041,inactive: -0.047,–,inactive: 0.023,inactive: -0.05
CRELD2 isoform 5 (UniProt Q6UXH1),inactive: -0.024,inactive: 0.02,inactive: -0.027,inactive: -0.098,inactive: -0.016,inactive: -0.007,inactive: -0.081,inactive: 0.051,inactive: -0.08,inactive: 0.085,inactive: 0.08,inactive: 0.013,inactive: -0.039,inactive: 0.048,inactive: 0.022,inactive: -0.029,inactive: -0.011,inactive: -0.017,inactive: 0.005,inactive: 0.129
CRTAP (UniProt O75718),inactive: 0,inactive: -0.016,inactive: -0.043,inactive: -0.035,inactive: -0.049,inactive: -0.051,inactive: -0.039,inactive: 0.039,inactive: -0.006,inactive: -0.043,inactive: 0.026,inactive: 0.009,inactive: 0.026,inactive: -0.009,inactive: 0.05,inactive: -0.005,inactive: -0.034,inactive: 0.006,inactive: 0.11,inactive: 0.106
CSNK2B (UniProt P67870),inactive: -0.019,inactive: 0.021,inactive: -0.032,inactive: 0.066,inactive: -0.021,inactive: 0.026,inactive: 0.016,inactive: -0.034,inactive: -0.03,inactive: -0.008,inactive: -0.029,inactive: 0.009,inactive: 0.043,inactive: 0.019,–,inactive: -0.051,inactive: 0.027,–,inactive: -0.048,inactive: -0.176
CPD (UniProt O75976),inactive: -0.017,inactive: 0,inactive: -0.01,inactive: -0.016,inactive: -0.001,inactive: -0.017,inactive: -0.021,inactive: -0.062,inactive: 0.016,inactive: 0.011,inactive: -0.152,inactive: -0.33,inactive: -0.017,inactive: 0.025,–,inactive: -0.044,inactive: -0.024,–,inactive: 0.029,active: -0.399
CPT2 (UniProt P23786),inactive: 0.313,inactive: -0.105,inactive: 0.035,inactive: 0.019,inactive: -0.417,inactive: 0.042,inactive: 0.007,inactive: 0.016,inactive: 0.474,inactive: 0.013,inactive: 0.235,active: 0.912,inactive: -0.019,inactive: 0.011,–,inactive: 0.384,inactive: 0.088,–,inactive: -0.136,active: -0.613
COPB1 (UniProt P53618),inactive: 0.052,inactive: -0.033,inactive: 0.015,inactive: 0.01,inactive: -0.084,inactive: 0.034,inactive: 0.044,inactive: 0.003,inactive: 0.024,inactive: 0.007,inactive: -0.003,inactive: -0.172,inactive: 0.018,inactive: 0.018,inactive: -0.046,inactive: -0.035,inactive: 0.025,inactive: 0.045,inactive: -0.026,inactive: -0.002
CSK (UniProt P41240),active: 0.325,inactive: -0.091,inactive: -0.01,inactive: 0.019,inactive: -0.046,inactive: 0.072,inactive: 0.054,inactive: 0.034,inactive: 0.035,inactive: 0.004,inactive: -0.132,active: -0.306,inactive: 0.05,inactive: 0.014,–,inactive: -0.075,inactive: 0.024,–,inactive: -0.011,inactive: -0.147
CPQ (UniProt Q9Y646),inactive: 0.001,inactive: 0.025,inactive: -0.005,inactive: -0.005,inactive: -0.016,inactive: 0.043,inactive: 0.006,inactive: 0.024,inactive: 0.011,inactive: -0.002,inactive: -0.144,active: -0.27,inactive: -0.036,inactive: 0.062,–,inactive: -0.039,inactive: -0.021,–,inactive: 0.032,inactive: -0.035
COQ6 (UniProt Q9Y2Z9),inactive: 0.01,inactive: -0.061,inactive: 0.118,inactive: 0.044,inactive: -0.171,inactive: 0.018,inactive: 0.143,inactive: -0.065,inactive: -0.027,inactive: 0.018,inactive: -0.019,inactive: -0.051,inactive: 0.032,inactive: -0.094,inactive: 0.042,inactive: -0.16,inactive: 0.031,inactive: 0.008,inactive: -0.028,inactive: -0.121
